Library screening results

Amino acid sequences for entries named in this document (tags omitted).
UniProt E9BF75, entry or part of it: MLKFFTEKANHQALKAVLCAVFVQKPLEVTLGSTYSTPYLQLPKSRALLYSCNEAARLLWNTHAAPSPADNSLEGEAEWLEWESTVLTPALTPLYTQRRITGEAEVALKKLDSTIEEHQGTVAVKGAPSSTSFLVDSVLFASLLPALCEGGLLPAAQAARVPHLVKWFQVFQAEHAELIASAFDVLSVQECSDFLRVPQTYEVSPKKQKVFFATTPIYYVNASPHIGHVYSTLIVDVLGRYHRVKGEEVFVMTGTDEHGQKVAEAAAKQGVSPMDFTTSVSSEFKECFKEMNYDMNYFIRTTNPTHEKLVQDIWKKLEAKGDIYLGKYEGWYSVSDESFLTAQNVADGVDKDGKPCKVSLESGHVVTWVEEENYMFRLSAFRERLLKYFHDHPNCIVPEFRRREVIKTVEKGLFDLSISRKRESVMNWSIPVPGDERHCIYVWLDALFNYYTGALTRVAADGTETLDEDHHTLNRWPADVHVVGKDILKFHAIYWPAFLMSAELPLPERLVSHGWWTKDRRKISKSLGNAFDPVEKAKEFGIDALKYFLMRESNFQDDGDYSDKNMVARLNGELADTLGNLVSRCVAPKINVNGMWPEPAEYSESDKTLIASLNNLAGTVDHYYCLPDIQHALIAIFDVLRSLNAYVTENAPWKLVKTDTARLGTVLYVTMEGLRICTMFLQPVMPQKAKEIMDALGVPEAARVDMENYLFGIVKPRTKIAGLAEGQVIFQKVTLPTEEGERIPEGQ

Measurements from “University of Dundee, Small-Polar-MMV Screening Library” (2021), ChEMBL document CHEMBL3988442.

Results are percentages, as filed. How 0% and 100% were set is not recorded. Most values in the screen are low, and negative values occur. Compounds were drawn at random from those tested, without regard to their results. A dash means the value is not listed here; it may have been measured.

LdMetRS: 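Primary screen of methionyl-tRNA synthetase; the read-out is not stated. Target: Methionyl-tRNA synthetase (putative), Leishmania donovani (UniProt E9BF75). The test concentration is not given. Values are per cent inhibition. Size under these conditions: about 68,000 compounds, about 24 of them at 50% or above in at least one test.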
Mtb heat-shock: 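Assay on Mycobacterium tuberculosis, filed only as a heat shock assay from Cornell; the read-out is not stated. The concentration is filed as 10 mM, unlikely as a test dose, so the dose is not known. Higher reads as stronger inhibition (inferred: compounds with an IC50 in retests scored well above the rest). Of about 69,000 compounds tested this way, about 930 (1.4%) reached 50% or more in at least one test.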

SMILES	LdMetRS	Mtb heat-shock
O=C(O)CCc1cc2n(n1)CCCN(C(=O)c1ccc(Cl)s1)C2	13.24%	8.663%
O=S(=O)(Nc1ccc2c(c1)OCCO2)N1CCCCC1	7.43%	-4.709%
CS(=O)(=O)N1CCCCC12CCN(C(=O)c1ccccc1)C2 (stereo not shown)	7.216%	5.314%
O=C(O)CCNC(=O)N1CCc2c([nH]c3ccc(Cl)cc23)C1	12.42%	9.743%
Cc1nc(CN(C)C(=O)c2cccc(CC3CCNCC3)c2)no1	7.784%	-24.97%
CN1CCC(CN2CCC3(CCCN(Cc4ccoc4)C3)C2=O)CC1.O=C(O)C(F)(F)F.O=C(O)C(F)(F)F (stereo not shown)	-	0.8046%
N[C@@H]1CC[C@H](C(=O)NCc2ccc3nonc3c2)C1	14.63%	1.348%
Cc1ccc(S(N)(=O)=O)cc1C(=O)NCC1Cc2ccccc2O1 (stereo not shown)	13.04%	1.514%
O=C(NCC1(O)CCc2ccccc2C1)c1cccs1 (stereo not shown)	10.14%	11.59%
Cc1nc(C2CCCN2CC(=O)NCCOc2cccc(F)c2)no1 (stereo not shown)	14.74%	-8.851%
CN(Cc1nnc(C2CC2)n1C)C1CCN(CCS(C)(=O)=O)C1 (stereo not shown)	2.837%	-5.248%
COCc1ncc(CN2CC(Oc3c(C)cccc3C)C2)cn1	19.79%	-7.959%
O=C(COC1CCOC1)N(CC(F)F)c1cccc(Cl)c1 (stereo not shown)	-1.344%	6.029%
Cc1cc(C)n(C(=O)Cn2nc(C)c(I)c2C)n1	4.054%	-0.1097%
CC(C)CS(=O)(=O)CC(=O)NC(C)(C)c1cccc(F)c1	17.18%	-6.958%
CC(C)CCC(=O)NCCc1ccn(-c2ccccc2)n1	21.31%	-4.44%
COc1ncc(Cl)c(NCc2ccc(C(=O)N(C)C)cc2)n1	2.847%	-5.25%
Cc1ccc(-c2c[nH]c([C@@H]3COCCN3Cc3cccnc3)n2)cc1	5.263%	-2.379%
COCCN(C)c1ccc(NCc2cccnc2)nc1	4.61%	21.66%
N#Cc1ccc(CNC2CCN(CCc3ccncc3)CC2)cc1	-	-2.604%
CCCN1CCN(C(=O)c2ccc3ccccc3n2)[C@H]2CS(=O)(=O)C[C@H]21	1.099%	-
[H][C@@]12CC(=O)/C(=C(/C)NC(=O)c3ccco3)[C@]1([H])C2(C)C	-	4.352%
CC(=O)N1C[C@H]2CNC[C@@]2(C(=O)NCCOc2ccccc2F)C1	4.902%	-
COCc1cnc2n1CCN(S(=O)(=O)c1c(C)nn(C)c1C)C2C (stereo not shown)	2.536%	-37.14%
CC1c2ncc(CN3CCN(C)CC3)n2CCN1Cc1cccnc1.O=C(O)C(F)(F)F.O=C(O)C(F)(F)F.O=C(O)C(F)(F)F.O=C(O)C(F)(F)F (stereo not shown)	-	28.78%
COC(=O)N1CCN(CCCc2nnnn2-c2ccccc2)CC1	5.072%	-8.693%
CNC(=O)[C@@]12CCO[C@@H]1CCN(S(=O)(=O)c1ccccc1)C2	3.846%	-
[H][C@@]12CN(Cc3cc4ccccc4s3)C[C@]1([H])N(Cc1ccccn1)C(=O)O2	-	0.2584%
O=C(NC1(C(=O)O)CCCC1)C1Cc2cc(F)ccc2O1 (stereo not shown)	15.07%	8.996%
CS(=O)(=O)N1CC[C@]2(C[C@@H](Oc3ccccn3)CO2)C1	10.27%	-
Cn1cccc1C(=O)N1CC[C@H]2[C@@H]1CCC(=O)N2CC1CC1	15.57%	-
Cc1cc(C(=O)N2CCCC(n3cccn3)C2)c(C)n1C1CC1 (stereo not shown)	25.14%	-25.48%
COc1ccc(CCNC(=O)C2CCCOC2)c(Cl)c1 (stereo not shown)	14.18%	4.261%
Cc1nc(CN2CCCC(NCCOc3cccc(C#N)c3)C2)no1 (stereo not shown)	11.55%	-15.9%
CNC(=O)CN1CCOCC12CCN(C(=O)c1ccc(C)cc1)CC2	8%	-
Cc1csc(CCNCc2cnc3c(c2)c(C)nn3C)n1	18.54%	-
Cc1nnnn1-c1cc(NCc2cc(C#N)ccc2F)ccc1F	11.55%	15.44%
CN(CC1(O)CCCC1)C(=O)c1cccc(Nc2cnccn2)c1	8.943%	-2.631%
CC(C)[C@H]1CN(S(C)(=O)=O)C[C@@H]1NC(=O)c1ccnc(N)c1	13.77%	-18.1%
[H][C@@]12C[C@H](c3nnc(C)o3)CN(S(=O)(=O)C3CC3)[C@]1([H])CCO2	-	13.3%
Fc1ccc(CN2CCC3(CC2)CC(c2cccnc2)CO3)cc1 (stereo not shown)	16.75%	-
Cc1nccn1CCCn1cncc1-c1ccc2c(c1)CC(C)N2C (stereo not shown)	25.47%	-
O=C(c1cc2c([nH]c1=O)CCC2)N1CCCC1c1cccnc1 (stereo not shown)	-	-32.2%
O=C(NCC1CCCN(Cc2cccc3nonc23)C1)c1ccc[nH]1 (stereo not shown)	11.15%	2.353%
CCOc1ccnc(N2CCN(C(=O)c3cccnc3O)CC2)n1	11.74%	6.427%
Cc1cccc(CN2C[C@@H]3OCCN(S(=O)(=O)N(C)C)[C@@H]3C2)c1	9.343%	-
CC(C)c1nnc2n1CCN(C(C)c1nnc(-c3cccs3)o1)C2 (stereo not shown)	5.072%	12.62%
O=C(C1CCS(=O)(=O)C1)N1CCN(c2cnccn2)CC1 (stereo not shown)	7.302%	29.66%
CC(=O)N1CCCC2(CN(Cc3ccc(C)s3)CCO2)C1 (stereo not shown)	14.66%	-
O=C1NCCCC12CCN(Cc1ccc(SC3CCCCC3)o1)C2 (stereo not shown)	23.13%	0.2864%
COCCNC(=O)Cn1ccc2sc(C)cc2c1=O	5.634%	12.63%
CCc1ncnc2c1CCN(C(=O)c1ccncc1F)CC2.O=C(O)C(F)(F)F	-	-6.497%
O=C(O)C1(Cc2ccccc2Cl)CCN(c2ncccc2F)CC1	9.783%	-1.383%
CS(=O)(=O)N1CCC(CNC(=O)C2CCC2)CC1	9.296%	-8.426%
O=C(CNCCn1cccn1)NCC1(c2ccccc2)CCC1	23.76%	-1.457%
O=C(O)C(F)(F)F.[H][C@]12CCN(C(C)=O)CC[C@@]1([H])S(=O)(=O)N(Cc1ccncc1)C2	-	-6.893%
CCOC(=O)N1CCN(CC(=O)Nc2nnc(C)s2)CC1	-1.117%	3.195%
CN(C)CCN(Cc1ccccn1)Cc1ccnn1C1CCCCO1 (stereo not shown)	16.49%	-
CN1CCN(c2ccccc2NC(=O)NCC[S+](C)[O-])CC1 (stereo not shown)	17.61%	12.88%
CC(=O)N1CCC1c1cc(NC2CCOCC2)nc(C)n1 (stereo not shown)	12.46%	-1.521%
[H][C@@]12CC[C@H](Oc3cccc(F)c3)[C@]1([H])CN(C(=O)c1cccnn1)C2	-	-20.72%
O=C(NCc1ccccn1)NCC(c1ccco1)N1CCCCC1 (stereo not shown)	12.81%	15.86%
COCCO[C@H]1CCN(Cc2cccnc2)[C@H]1Cc1cccnc1	7.614%	-
COC[C@]1(O)CCN(Cc2cnc(N(C)C)nc2)CC1(C)C	16.27%	8.358%
CC(=O)N1CCCC(C(=O)Nc2ccccc2Cc2ccccc2)C1 (stereo not shown)	-0.2717%	-4.096%
CC(=O)N1CCC12CCN(Cc1ccco1)CC2.O=C(O)C(F)(F)F	-	-13.47%
COC[C@]1(O)CCN(c2cc(OC)ncn2)CC1(C)C	11.92%	1.263%
Cc1ccc(N2CCCC(NCC(=O)NCC3CC3)C2)nn1 (stereo not shown)	19.44%	49.92%
O=C(c1cnc(NCc2sccc2Br)c(Cl)c1)N1CCCCC1	19.05%	-10.74%
CC(C)N(C)S(=O)(=O)N(C)Cc1ccc2c(c1)OCO2	3.644%	-13.12%
CCN(C)c1ncnc2c1CCN(C(=O)Cc1ccccn1)CC2	7.205%	-
C[C@@H]1CN(Cc2ccoc2)C[C@]12CCN(CC(=O)N(C)C)C2=O	11.76%	-
Cc1noc(C)c1CS(=O)(=O)CC(=O)N1CCc2sccc2C1	15.06%	20.86%
Cc1nc[nH]c1CN(Cc1ccccc1)C1CC(C)(C)NC(C)(C)C1	6.231%	-

The last 4 entries again:

{"smiles": "CCN(C)c1ncnc2c1CCN(C(=O)Cc1ccccn1)CC2", "LdMetRS": 7.205}
{"smiles": "C[C@@H]1CN(Cc2ccoc2)C[C@]12CCN(CC(=O)N(C)C)C2=O", "LdMetRS": 11.76}
{"smiles": "Cc1noc(C)c1CS(=O)(=O)CC(=O)N1CCc2sccc2C1", "LdMetRS": 15.06, "Mtb heat-shock": 20.86}
{"smiles": "Cc1nc[nH]c1CN(Cc1ccccc1)C1CC(C)(C)NC(C)(C)C1", "LdMetRS": 6.231}